Where a name gives a salt, the structure may show the parent alone. ± gives the standard deviation of the averaged measurements. The list shows a part of the results. Many values rest on one well or one pass, so single values are uncertain.

This assay concerns RAW 264.7. Description: cell viability (MTT) relative to vehicle control; higher = more viable cells. The following applies: stimulus: HMGB1 5 ug/ml, 18 h.
[1] abbreviates: compound concentration: 1 ug/ml.

Usually cell viability stands for a read-out of living cells in per cent, often relative to untreated cells. In the case of `CC(COc1ccc(/C=C/c2ccccc2)cc1)[N+](C)(C)C` (stereo not given), the cell viability (compound concentration: 3 uM) was found to be 117%.
Still for that read-out and setting: the same measure for `COc1cc2cc3c4cc(OC)c(OC)cc4cc[n+]3c(C)c2cc1OC`: 94%; for `c1ccc(C2CN3CCSC3=N2)cc1` (stereo not given) [Tetramisole hydrochloride]: 104 ± 16%.
On the same count and under the same terms, the value for `c1ccc(C2CN3CCSC3=N2)cc1` (stereo not given) was 111%.
As for `COc1cccc(-c2cc(=O)c3cc(O)ccc3o2)c1`, the cell viability under setting [1] turned out to be 86.4%.
As for `C=C1c2cccc(O)c2C(=O)C2=C(O)[C@]3(O)C(=O)C(C(N)=O)=C(O)[C@@H](N(C)C)[C@@H]3[C@@H](O)[C@H]12`, the cell viability (compound concentration: 3 uM) was determined as 114%.
On the same count and under the same terms, the value for `C=C1c2cccc(O)c2C(=O)C2=C(O)[C@]3(O)C(=O)C(C(N)=O)=C(O)[C@@H](N(C)C)[C@@H]3[C@@H](O)[C@H]12` [Methacycline hydrochloride] was 74.7%; that for `Cn1c(=O)c2nc[nH]c2n(C)c1=O` [Theophylline] was 117%; that for `Cn1c(=O)c2nc[nH]c2n(C)c1=O` was 113%.
Still for that read-out and setting: the value for `Cn1c(=O)c2nc[nH]c2n(C)c1=O` [Theophylline monohydrate] was 115%.
Consider `CN(C)CCC(c1ccc(Cl)cc1)c1ccccn1` (single isomer, unassigned; (+)) [(+)-Chlorpheniramine maleate], for which the cell viability (compound concentration: 3 uM) turned out to be 103%.
Take `CSCC[C@H](N)C(=O)Nc1ccc2c(C)cc(=O)oc2c1` [L-Methionine 7-amido-4-methylcoumarin trifluoroacetate salt]: the cell viability under setting [1] is 93.3%.
Consider `Cc1scc2c1N(C(=O)CN1CCN(C)CC1)c1ccccc1NC2=O`, for which, for the setting “compound concentration: 3 uM”, the cell viability stood at 103%.
As for `Cc1scc2c1N(C(=O)CN1CCN(C)CC1)c1ccccc1NC2=O` [Telenzepine dihydrochloride], for the setting “compound concentration: 3 uM”, the cell viability was determined as 109 ± 10%.
The same measure, in the same setting: the same measure for `Cc1scc2c1N(C(=O)CN1CCN(C)CC1)c1ccccc1NC2=O` [Telenzepine]: 101%; for `Cc1cc2c(cc1Cl)N(C(=O)Nc1ccc(Oc3cccnc3C)nc1)CC2`: 104%.
Same read-out and setting: the same measure for `O=C(N[C@@H](Cc1ccccc1)C(=O)CCl)OCc1ccccc1` [Z-L-Phe chloromethyl ketone]: 56.2%.
For the compound `Cc1cc2ccc(=O)oc2cc1OC[C@@H](O)C(C)(C)O`, the cell viability under setting [1] is 94.3%.
`CCCCOC(=O)NS(=O)(=O)c1sc(CC(C)C)cc1-c1ccc(Cn2c(CC)nc3c(C)cc(C)nc32)cc1`: the cell viability (compound concentration: 3 uM) turned out to be 93.8%.
For the compound `COc1ccc(CCN(C)CCCC(C#N)(c2cc(OC)c(OC)c(OC)c2)C(C)C)cc1OC` (racemic) [(±)-Methoxyverapamil hydrochloride], for the setting “compound concentration: 3 uM”, the cell viability stood at 103%.
The same measure, in the same setting: the same measure for `FC(F)(F)c1ccccc1-n1ccnc1` [1-[2-(Trifluoromethyl)phenyl]imidazole]: 108%.
In the case of `COc1cccc(-c2oc3ccccc3c(=O)c2O)c1`, the cell viability under setting [1] stood at 78.8%.
Consider `COc1cccc(NC(=O)/C=C/c2ccc(Cl)cc2)c1`, for which, where the note is “compound concentration: 3 uM”, the cell viability is 127%.
On the same count and under the same terms, the value for `Oc1ccccc1O` [Pyrocatechol] was 104%; that for `CO/N=C(\C(=O)N[C@@H]1C(=O)N2C(C(=O)O)=C(CSc3nc(=O)c(O)nn3C)CS[C@H]12)c1csc(N)n1` was 105%.
On the same count and under the same terms, the same measure for `CO/N=C(\C(=O)N[C@@H]1C(=O)N2C(C(=O)O)=C(CSc3nc(=O)c(O)nn3C)CS[C@H]12)c1csc(N)n1` [Ceftriaxone sodium]: 111%; for `c1ccc2c(c1)CCC[C@H]2Nc1nc2ccccc2[nH]1` [NS8593 hydrochloride]: 105%.
For `O=C(Nc1cccc2c(=O)cc(-c3nnn[nH]3)oc12)c1ccc(OCCCCc2ccccc2)cc1` [Pranlukast], the cell viability (compound concentration: 3 uM) was determined as 110 ± 3.8%.
The same measure, in the same setting: the same measure for `C[C@]12CCC(=O)C=C1CC[C@@H]1[C@@H]2[C@@H](O)C[C@@]2(C)[C@H]1CC[C@]2(O)C(=O)COC(=O)CCC(=O)O`: 108%.
Turning to `C[C@]12CCC(=O)C=C1CC[C@@H]1[C@@H]2[C@@H](O)C[C@@]2(C)[C@H]1CC[C@]2(O)C(=O)COC(=O)CCC(=O)O` [hydrocortisone 21-hemisuccinate], the cell viability under setting [1] is 110%.
On to `CC(C)(C)NC[C@H](O)COc1nsnc1N1CCOCC1` [Timolol maleate salt], for which the cell viability (compound concentration: 3 uM) was 88.7%.
As for `CC(C)(C)NC[C@H](O)COc1nsnc1N1CCOCC1`, the cell viability (compound concentration: 3 uM) came out at 111%.
On the same count and under the same terms, the same measure for `CC(C)(C)NC[C@H](O)COc1nsnc1N1CCOCC1` [S(-)-Timolol maleate]: 112%.
With `CC(C)(C)NC[C@H](O)COc1nsnc1N1CCOCC1` [Timolol (S)], the cell viability (compound concentration: 3 uM) stood at 105%.
On the same count and under the same terms, the value for `NCCCC[C@H](N[C@@H](CCc1ccccc1)C(=O)O)C(=O)N1CCC[C@H]1C(=O)O` was 103%; that for `NCCCC[C@H](N[C@@H](CCc1ccccc1)C(=O)O)C(=O)N1CCC[C@H]1C(=O)O` [Lisinopril] was 98.4 ± 6.1%; that for `Fc1ccc(C(OCCCc2cnc[nH]2)c2ccc(F)cc2)cc1` was 92.6%.
On the same count and under the same terms, the same measure for `CCNC(=O)N1CCN(CCCC(c2ccc(F)cc2)c2ccc(F)cc2)CC1` [Amperozide hydrochloride]: 103%.
`COC1=C(OC)C(=O)C(CCCCCCCCCCO)=C(C)C1=O`: the cell viability (compound concentration: 3 uM) worked out at 92.8 ± 1.7%.
The same measure, in the same setting: the value for `COC1=C(OC)C(=O)C(CCCCCCCCCCO)=C(C)C1=O` [Idebenone] was 114 ± 7.1%.
